Experimental data: patent publication US20230242610A1
No constants are given. Whether binding was seen depends on the method and setting. For some assays here: In cells and extracts the contact can be indirect. Some entries that bind do so weakly or less than the wild type. Where a sequence is shown, tags or fusion partners need not be part of it.

Assays:
HA-TMEM16A (mouse) [1] = biological target: T1, HA-TMEM16A (mouse) (UniProt Q8BHY3); assay: single molecule pulldown (SiMPull), TIRF
T1 sequence (looked up): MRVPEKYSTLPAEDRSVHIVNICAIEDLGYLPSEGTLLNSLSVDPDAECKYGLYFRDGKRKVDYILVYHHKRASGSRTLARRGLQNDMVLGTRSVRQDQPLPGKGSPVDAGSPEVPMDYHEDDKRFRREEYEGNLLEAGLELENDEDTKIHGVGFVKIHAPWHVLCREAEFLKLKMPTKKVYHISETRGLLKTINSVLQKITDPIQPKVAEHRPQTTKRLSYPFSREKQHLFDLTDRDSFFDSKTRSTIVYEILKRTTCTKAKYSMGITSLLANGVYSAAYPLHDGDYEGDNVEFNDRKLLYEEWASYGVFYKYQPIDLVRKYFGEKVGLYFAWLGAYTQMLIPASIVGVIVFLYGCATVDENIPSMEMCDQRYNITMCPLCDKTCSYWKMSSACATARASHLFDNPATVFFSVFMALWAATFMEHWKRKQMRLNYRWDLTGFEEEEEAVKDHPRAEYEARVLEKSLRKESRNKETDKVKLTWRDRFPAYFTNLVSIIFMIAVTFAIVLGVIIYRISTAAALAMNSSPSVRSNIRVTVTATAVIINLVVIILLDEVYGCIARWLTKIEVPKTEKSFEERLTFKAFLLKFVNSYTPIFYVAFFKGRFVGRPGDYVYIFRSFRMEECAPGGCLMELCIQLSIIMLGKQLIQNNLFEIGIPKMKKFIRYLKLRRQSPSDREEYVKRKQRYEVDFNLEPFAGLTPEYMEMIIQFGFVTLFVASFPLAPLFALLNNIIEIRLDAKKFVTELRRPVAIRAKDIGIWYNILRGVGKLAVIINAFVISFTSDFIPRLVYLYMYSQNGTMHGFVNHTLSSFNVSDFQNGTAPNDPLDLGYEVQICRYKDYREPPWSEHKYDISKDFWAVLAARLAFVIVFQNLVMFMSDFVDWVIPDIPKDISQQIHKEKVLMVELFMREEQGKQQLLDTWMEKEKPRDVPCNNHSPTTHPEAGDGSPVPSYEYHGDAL

HA-TMEM16A (mouse) [2] = biological target: T1, HA-TMEM16A (mouse); assay: single molecule pulldown (SiMPull), HEK293T lysate on an anti-HA coverslip, TIRF

binding (HA-TMEM16A (mouse) [1]): binds
binding (HA-TMEM16A (mouse) [2]): binds
Substance: KCNE1-GFP (from UniProt P15382 1-129)
